Test results: article PMC12431657, “Discovery and mechanistic insights of dibenzoylmethane as a broad spectrum inhibitor of coronavirus” (PLOS Pathogens, 2025)
Counter-ions that a name gives are not always drawn. Like-named read-outs stand apart in the source and are kept apart here. In all, about 3,300 compounds went through this assay and about 60 (2%) showed an effect of 50% or more. Some of the results follow.

Test system: HCoV-OC43
Parameters: species or system RD; HTS, protection from HCoV-OC43 induced cell death, luminescent cell viability (CellCounting-Lite 2.0), inhibition rate
Conditions: 24 h post infection, 1 h compound pre-incubation, 10 µM, inhibitor

With `Cc1c(N)nc([C@H](CC(N)=O)NC[C@H](N)C(N)=O)nc1C(=O)N[C@H](C(=O)N[C@H](C)[C@@H](O)[C@H](C)C(=O)N[C@H](C(=O)NCCc1nc(-c2nc(C(=O)NCCC[S+](C)C)cs2)cs1)[C@@H](C)O)[C@@H](O[C@@H]1O[C@@H](CO)[C@@H](O)[C@H](O)[C@@H]1O[C@H]1O[C@H](CO)[C@@H](O)[C@H](OC(N)=O)[C@@H]1O)c1cnc[nH]1` [Bleomycin (sulfate)] the “OC43 Inhibition rate” value was -11.1%.

With `C[C@@H]1CC[C@@]2(NC1)O[C@H]1C[C@H]3[C@@H]4CC=C5C[C@@H](O)CC[C@]5(C)[C@H]4CC[C@]3(C)[C@H]1[C@@H]2C` [Solasodine] the “OC43 Inhibition rate” value was 0.9%.

`C[C@H](O)CC(=O)O` [(S)-3-Hydroxybutanoic acid] was tested, and the “OC43 Inhibition rate” value was 3.9%.

`CCCCCCCCCC(=O)N[C@@H](Cc1c[nH]c2ccccc12)C(=O)N[C@H](CC(N)=O)C(=O)N[C@@H](CC(=O)O)C(=O)N[C@@H]1C(=O)NCC(=O)N[C@@H](CCCN)C(=O)N[C@@H](CC(=O)O)C(=O)N[C@H](C)C(=O)N[C@@H](CC(=O)O)C(=O)NCC(=O)N[C@H](CO)C(=O)N[C@@H]([C@H](C)CC(=O)O)C(=O)N[C@@H](CC(=O)c2ccccc2N)C(=O)O[C@@H]1C` [Daptomycin] was tested, and the “OC43 Inhibition rate” value was 62.7%.

For `NC(=O)NC(NC(N)=O)C(=O)O` [Allantoic acid], the “OC43 Inhibition rate” value was 0.9%.

In the case of `CC(C)(O)CC[C@@H](O)[C@](C)(O)[C@H]1CC=C2C3=C(CC[C@@]21C)[C@@]1(C)C[C@H](O)[C@H](O)C[C@H]1C(=O)C3` [Podecdysone B], the “OC43 Inhibition rate” value is reported as -0.3%.

`COc1cc(C(=O)O[C@H]2[C@@H]3C=CO[C@@H](O[C@@H]4O[C@H](CO)[C@@H](O)[C@H](O)[C@H]4O)[C@@H]3[C@@]3(CO)O[C@@H]23)ccc1O` [Picroside II] was tested, and the “OC43 Inhibition rate” value was 0.3%.

With `CC(=O)OCC1=CO[C@@H](OC(=O)CC(C)C)[C@H]2C1=C[C@H](OC(=O)CC(C)(C)OC(C)=O)[C@]21CO1` [Acevaltrate] the “OC43 Inhibition rate” value was 1.4%.

`C[C@H](CCC(=O)NCC(=O)O)[C@H]1CC[C@H]2[C@@H]3C[C@H](O)[C@@H]4C[C@H](O)CC[C@]4(C)[C@H]3CC[C@]12C` [Glycohyodeoxycholic acid] was tested, and the “OC43 Inhibition rate” value was -0.5%.

For `Nc1ncnc2c1ncn2[C@@H]1O[C@H](CO)[C@@H](O)[C@@H]1O` [Vidarabine], the “OC43 Inhibition rate” value was -2.6%.

With `O=c1[nH]cnc2nc[nH]c12` [Hypoxanthine] the “OC43 Inhibition rate” value was -0.8%.

With `COc1ccc2c(c1O)-c1c(OC)c(OC)cc3c1[C@H](C2)N(C)CC3` [Isocorydine] the “OC43 Inhibition rate” value was 8.2%.

`CC[C@H](C)[C@H](N)C(=O)O` [L-Isoleucine] was tested, and the “OC43 Inhibition rate” value was -3.5%.

For `COC(=O)/C=C/c1ccc(O)cc1` [(E)-Methyl 4-coumarate], the “OC43 Inhibition rate” value (OC43 Inhibition rate, 24 h) was 0.4%.

`NCCCCN` [1,4-Diaminobutane (dihydrochloride)] was tested, and the “OC43 Inhibition rate” value was -0.1%.

For `CO[C@@H]1[C@@H](OC)[C@H](C)[C@@](O)(CC(=O)O)O[C@H]1[C@H](C)[C@H]1O[C@@]2(CC[C@@](C)([C@H]3CC[C@@](C)([C@@H]4O[C@@H]([C@H]5O[C@](C)(O)[C@H](C)C[C@@H]5C)C[C@@H]4O[C@@H]4C[C@H](OC)[C@@H](OC)[C@H](C)O4)O3)O2)C[C@H](O)[C@H]1C` [Maduramicin (ammonium)], the “OC43 Inhibition rate” value was -13.3%.

`CC(C(=O)O)C(O)(CC(=O)O)C(=O)O` (centres unmarked) [2-Methylcitric acid] was tested, and the “OC43 Inhibition rate” value was -1.2%.

`CC1(C)CC[C@]2(C(=O)O)CC[C@]3(C)C(=CC[C@@H]4[C@@]5(C)C[C@@H](O)[C@H](O)[C@@](C)(CO)[C@@H]5CC[C@]43C)[C@@H]2C1` [Arjunolic acid] was tested, and the “OC43 Inhibition rate” value was 6.3%.

For `COc1cc(-c2c3c(c(O)c4cc5c(cc24)OCO5)COC3=O)cc(OC)c1OC` [Tetradehydropodophyllotoxin], the “OC43 Inhibition rate” value was 1%.

In the case of `CC(C)[C@@H]1CC[C@@H](C)CC1=O` [Menthone], the “OC43 Inhibition rate” value is reported as 1.6%.

With `C[C@@H](O)C(=O)O` [D-(-)-Lactic acid (sodium)] the “OC43 Inhibition rate” value was -6.8%.

`C=C[C@@](C)(/C=C/c1ccc(O)cc1)CCC=C(C)C` [Bakuchiol] was tested, and the “OC43 Inhibition rate” value was 0.1%.

`CCC(CC)C(=O)O` [2-Ethylbutyric acid] was tested, and the “OC43 Inhibition rate” value was 5.7%.

For `C=C(C(=O)O)[C@H]1CC[C@H](C)[C@@H]2CC(=O)C(C)=C2C1` [Rupestonic acid], the “OC43 Inhibition rate” value was 1.2%.

In the case of `Cc1ccccc1C(=O)NCC(=O)O` [2-(2-Methylbenzamido)acetic acid], the “OC43 Inhibition rate” value is reported as -0.8%.

With `CC(=O)c1ccc2ccccc2c1` [2-Acetonaphthone] the “OC43 Inhibition rate” value was -1.5%.

For `COc1cc2c(cc1O)CC[n+]1cc3c(OC)c(OC)ccc3cc1-2` [Jatrorrhizine (chloride)], the “OC43 Inhibition rate” value (OC43 Inhibition rate, 24 h) was -1.6%.

With `Cc1cc2nc3c(=O)[nH]c(=O)nc-3n(C[C@H](O)[C@H](O)[C@H](O)COP(=O)(O)OP(=O)(O)OC[C@H]3O[C@@H](n4cnc5c(N)ncnc54)[C@H](O)[C@@H]3O)c2cc1C` [Flavin adenine dinucleotide (disodium salt)] the “OC43 Inhibition rate” value was -0.8%.

`Cn1c(Cc2ccccc2)nc(=O)c2ccccc21` [Arborine] was tested, and the “OC43 Inhibition rate” value was 6.9%.

For `C[C@H]1O[C@@H](O[C@H]2[C@@H](O)C[C@H](O[C@H]3[C@@H](O)C[C@H](O[C@H]4CC[C@@]5(C)[C@H](CC[C@@H]6[C@@H]5CC[C@]5(C)[C@@H](C7=CC(=O)OC7)CC[C@]65O)C4)O[C@@H]3C)O[C@@H]2C)C[C@H](O)[C@@H]1O` [Digitoxin], the “OC43 Inhibition rate” value was -1.1%.

With `C=C1CCC[C@]2(C)C[C@@H]3OC(=O)C(C)=C3C[C@@H]12` [Atractylenolide II] the “OC43 Inhibition rate” value was 36.4%.

In the case of `C=C(C)[C@@H]1CC[C@]2(C)CC[C@]3(C)[C@H](CC[C@@H]4[C@@]5(C)CC[C@H](O)C(C)(C)[C@@H]5CC[C@]43C)[C@@H]12` [Lupeol], the “OC43 Inhibition rate” value is reported as 0.1%.

In the case of `O=c1ccc2cc3ccoc3c(O)c2o1` [Xanthotoxol], the “OC43 Inhibition rate” value is reported as 0.3%.

In the case of `COC(=O)c1ccc(O)c(O)c1` [Methyl 3,4-dihydroxybenzoate], the “OC43 Inhibition rate” value is reported as 2.3%.

In the case of `C[C@@H]1O[C@@H](O[C@H]2[C@H](O[C@H]3CC[C@@]4(C)[C@@H](CC[C@]5(C)[C@@H]4CC=C4[C@@H]6CC(C)(C)CC[C@]6(C(=O)O[C@@H]6O[C@H](CO[C@@H]7O[C@H](CO)[C@@H](O)[C@H](O)[C@H]7O)[C@@H](O)[C@H](O)[C@H]6O)CC[C@]45C)[C@]3(C)CO)OC[C@H](O)[C@@H]2O)[C@H](O)[C@H](O[C@@H]2O[C@H](CO)[C@@H](O[C@@H]3O[C@H](CO)[C@@H](O)[C@H](O)[C@H]3O)[C@H](O)[C@H]2O)[C@H]1O` [Macranthoidin B], the “OC43 Inhibition rate” value is reported as -0.2%.

With `COc1c(-c2ccccc2)oc2ccccc2c1=O` [3-Methoxyflavone] the “OC43 Inhibition rate” value was -2.3%.

With `CC(=O)CCc1ccccc1` [Benzylacetone] the “OC43 Inhibition rate” value was 2.4%.

With `CC(=O)O[C@H]1C(=O)[C@@]2(C)[C@H]([C@H](OC(=O)c3ccccc3)[C@]3(O)C[C@H](O)C(C)=C1C3(C)C)[C@]1(OC(C)=O)CO[C@@H]1C[C@@H]2O` [Baccatin III] the “OC43 Inhibition rate” value was 0.7%.

With `COc1cc2c(cc1OC)[C@@H]1Cc3ccc(OC)c(OC)c3CN1CC2` [Rotundine] the “OC43 Inhibition rate” value (OC43 Inhibition rate, 24 h) was 2.9%.

For `COc1ccc2[nH]c(=O)oc2c1` [Coixol], the “OC43 Inhibition rate” value was 0%.

With `C[C@@H]1O[C@@H](Oc2c(-c3ccc(O)cc3)oc3cc(O[C@@H]4O[C@@H](C)[C@H](O)[C@@H](O)[C@H]4O[C@@H]4O[C@H](CO)[C@@H](O)[C@H](O)[C@H]4O)cc(O)c3c2=O)[C@H](O)[C@H](O)[C@H]1O` [Grosvenorine] the “OC43 Inhibition rate” value was -0.3%.

In the case of `CCOC(=O)/C=C/c1ccc(OC)cc1` [(E)-Ethyl p-methoxycinnamate], the “OC43 Inhibition rate” value is reported as 0.7%.

In the case of `O=C(O)CCCCCCCCCC(=O)O` [Undecanedioic acid], the “OC43 Inhibition rate” value is reported as -1.2%.

With `CC1(C)CC[C@]2(C(=O)O[C@@H]3O[C@H](CO)[C@@H](O)[C@H](O)[C@H]3O)CC[C@]3(C)C(=CC[C@@H]4[C@@]5(C)CC[C@H](O)C(C)(C)[C@@H]5CC[C@]43C)[C@@H]2C1` [Oleanolic acid 28-O-β-D-glucopyranoside] the “OC43 Inhibition rate” value was -3.5%.

In the case of `O=c1[nH]cc(CO)c(=O)[nH]1` [5-Hydroxymethyluracil], the “OC43 Inhibition rate” value is reported as 1%.

For `COc1ccc(-c2coc3cc(O[C@@H]4O[C@H](CO)[C@@H](O)[C@H](O)[C@H]4O)ccc3c2=O)cc1O` [Calycosin-7-O-β-D-glucoside], the “OC43 Inhibition rate” value was 4.3%.

`C[C@@H](N)C(=O)O` [D-Alanine] was tested, and the “OC43 Inhibition rate” value was 3.8%.

In the case of `COc1ccc2c(OC)c3ccoc3nc2c1` [Evolitrine], the “OC43 Inhibition rate” value is reported as 14.1%.

For `c1cncc([C@@H]2CCCCN2)c1` [Anabasine], the “OC43 Inhibition rate” value was -0.4%.

In the case of `COC(=O)[C@]12OC[C@]34[C@H]([C@@H](O)[C@@H]1O)[C@@]1(C)CC(=O)C(O)=C(C)[C@@H]1C[C@H]3OC(=O)[C@H](OC(=O)C=C(C)C)[C@@H]24` [Brusatol], the “OC43 Inhibition rate” value is reported as 5.2%.

`CC/C=C\C/C=C\C/C=C\CCCCCCCC(=O)OC` [Methyl linolenate] was tested, and the “OC43 Inhibition rate” value was 3.9%.

In the case of `C=C1C[C@@]23CC[C@H]4[C@@](C)(CCC[C@@]4(C)C(=O)O[C@@H]4O[C@H](CO)[C@@H](O)[C@H](O)[C@H]4O)[C@@H]2CC[C@]1(O[C@@H]1O[C@H](CO)[C@@H](O)[C@H](O)[C@H]1O)C3` [Rubusoside], the “OC43 Inhibition rate” value is reported as 1%.

With `CC(C)CCC[C@@H](C)[C@H]1CC[C@H]2[C@@H]3CC[C@H]4CC(=O)CC[C@]4(C)[C@H]3CC[C@]12C` [5α-Cholestan-3-one] the “OC43 Inhibition rate” value was 0%.
